Reference: PubChem BioAssay AID1259425 (University of Nebraska Medical Center, 2018)

- Purpose: 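Compare each knockdown with KSR1 silencing using changes in marker transcripts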 (primary screen)
- Cells: HCT116 human colon cancer cells
- Reagent: siRNA pool against human genes, 50 nM siRNA
- Measurement: 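mRNA of six signature genes measured together by branched-DNA assay after 50 nM siRNA pool, blank removed, divided by geometric mean of two housekeeping genes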
- Direction: BNIP3L mRNA: higher = more BNIP3L transcript after knockdown
Shown is one part, drawn at random, of about 14,000 reagents tested. Not all columns of the deposit are shown. Not stated in the record: the time to read-out.

| target gene | BNIP3L mRNA, set 1 |
| --- | --- |
| SLIT1 | 0.145 |
| IGFBP5 | 0.139 |
| MAP2K7 | 0.151 |
| CAND2 | 0.0919 |
| RELT | 0.106 |
| PRDM11 | 0.188 |
| BEGAIN | 0.161 |
| ABCC2 | 0.0897 |
| DHCR24 | 0.121 |
| SLC14A2 | 0.0985 |

3 entries already listed, sorted by “BNIP3L mRNA, set 1”, high to low.
| target gene | BNIP3L mRNA, set 1 |
| --- | --- |
| MAP2K7 | 0.151 |
| RELT | 0.106 |
| CAND2 | 0.0919 |

Next results follow.
| target gene | BNIP3L mRNA, set 1 |
| --- | --- |
| GTF2E2 | 0.121 |
| WRNIP1 | 0.104 |
| IGDCC3 | 0.458 |
| ZSCAN16 | 0.109 |
| FILIP1 | 0.0916 |
| ADAM12 | 0.0873 |
| GPR157 | 0.134 |
| ZNF581 | 0.108 |
| PRNP | 0.229 |
| RALA | 0.0591 |
